Test results taken from publication doi:10.1101/2024.05.31.596839.

T1: Spindle E (Drosophila) (UniProt Q9VF26)
T1 sequence: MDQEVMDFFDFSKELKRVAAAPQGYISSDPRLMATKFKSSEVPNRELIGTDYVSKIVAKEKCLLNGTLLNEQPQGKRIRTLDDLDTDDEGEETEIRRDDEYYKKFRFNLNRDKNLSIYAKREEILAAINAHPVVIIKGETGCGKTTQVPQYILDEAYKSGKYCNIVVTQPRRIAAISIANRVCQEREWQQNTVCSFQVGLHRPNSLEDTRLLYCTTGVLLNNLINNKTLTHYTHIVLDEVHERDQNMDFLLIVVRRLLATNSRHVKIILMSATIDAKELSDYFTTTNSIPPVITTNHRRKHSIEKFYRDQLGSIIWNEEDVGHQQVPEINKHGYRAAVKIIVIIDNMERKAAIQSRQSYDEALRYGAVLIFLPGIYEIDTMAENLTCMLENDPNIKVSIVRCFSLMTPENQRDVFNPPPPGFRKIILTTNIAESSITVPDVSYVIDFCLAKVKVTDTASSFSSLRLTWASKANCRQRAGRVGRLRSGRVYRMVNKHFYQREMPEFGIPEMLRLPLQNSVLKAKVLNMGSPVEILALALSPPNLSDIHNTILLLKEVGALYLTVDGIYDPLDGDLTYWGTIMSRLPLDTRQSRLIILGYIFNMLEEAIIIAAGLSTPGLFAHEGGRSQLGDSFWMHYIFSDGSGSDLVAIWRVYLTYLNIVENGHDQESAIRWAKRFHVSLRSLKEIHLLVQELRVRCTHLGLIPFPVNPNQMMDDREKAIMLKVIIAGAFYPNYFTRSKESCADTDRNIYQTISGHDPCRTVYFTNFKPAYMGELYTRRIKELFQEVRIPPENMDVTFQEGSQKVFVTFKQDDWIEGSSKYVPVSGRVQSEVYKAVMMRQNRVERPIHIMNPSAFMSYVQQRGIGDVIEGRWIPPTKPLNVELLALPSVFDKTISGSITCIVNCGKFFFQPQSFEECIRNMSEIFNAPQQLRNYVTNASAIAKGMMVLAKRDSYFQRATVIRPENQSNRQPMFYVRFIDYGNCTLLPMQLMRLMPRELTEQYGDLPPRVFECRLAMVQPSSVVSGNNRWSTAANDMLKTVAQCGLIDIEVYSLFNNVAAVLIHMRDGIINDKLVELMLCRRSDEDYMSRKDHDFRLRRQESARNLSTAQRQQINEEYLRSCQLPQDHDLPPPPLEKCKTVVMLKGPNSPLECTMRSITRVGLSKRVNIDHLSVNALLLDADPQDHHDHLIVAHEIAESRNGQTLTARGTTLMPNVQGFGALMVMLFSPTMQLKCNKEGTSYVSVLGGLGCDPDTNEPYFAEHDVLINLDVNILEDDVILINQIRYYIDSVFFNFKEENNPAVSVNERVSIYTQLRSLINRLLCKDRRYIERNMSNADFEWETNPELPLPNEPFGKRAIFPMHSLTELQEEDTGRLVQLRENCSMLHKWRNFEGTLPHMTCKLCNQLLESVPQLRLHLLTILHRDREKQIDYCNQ


These molecules were tested against Tejas (Drosophila) (assay: ReLo).

Molecule	binding
Krimper MUT (protein, UniProt A1ZAC4 1-746) MNLEDISMIMKLFDSNMHKLQGNLRSYQTEMHQIHKELTEKLSHADLLYRSLIPLHDHLVASLSEVNAHVMKLNVQLHINRQSVRLGDYEYYEKSIDNPYSSIRSGLQAIEKPGCAEAICQSSKPAFVECLPSSTSEEVPVVAVQEASSTNQLDAISVVNENLSEERDATPQPLAVSKNMEETMPSNPFHEQLEGSLEEIPVGSKIVVETEKANNPVRSEASAPATSDNQSLLAAKQGTQTIGTGICNKISKSTINMPNNWQLENPTEVTAASIEKVNKLPKSPRNRFLLPPKGGTETTRRDIYNQILKDMAAFPENTIVTAVLASVDVTDNCAYVAKWDESSDRIKKVLQRQLPLQELDQLPDYGDIFAVLDSINNIITRITINSSSAGGGYDAYLIDFGEHIHFDGNETIFKLPDDIKRLPAQAIRCDLINCDIANMHCFVNTYIKIRVHENNNSTLVAEPVIDRLSRPTKTNTTKYPAGETEDDMAMENEEDESTSDPLKAVLGFRPKDEQRICRHYDPKLNGCFKGNNCRFAHEPFAPNGATKDVELARALPETIFDTTVHFEIGSIVGILITFINGPTEVYGQFLDGSPPLVWDKKDVPENKRTFKSKPRLLDIVLALYSDGCFYRAQIIDEFPSEYMIFYVDYGNTEFVPLSCLAPCENVDSFKPHRVFSFHIEGIVRSKNLTHQKTIECIEYLKSKLLNTEMNVHLVQRLPDGFLIRFLDDWKYIPEQLLQRNYAQVSQ	binds
Maelstrom with the TIR deleted (ReLo) (domain or fragment, UniProt Q9VNS0 1-412) MAPKKHSGFMMFVNEWRNRNAEGRRMTLAQAVSHCGTIWEKMNTQQRGPYNSGGKDANVAQRAKRESSNGHGQVDKAQREATESLMDMKRTIERLVLNAKMSHDLENAKFVFVAFNYFTKALTTDVYVPAEFAACEYSLKEGIRSIYSTMIDPGQIIFGQGSDALLHSSTTHDLPLPPNALGEKNMTKLYRNIVDYLSKCQGKGKTLVVFTPAENITMVKSCFRYLECDDDFRDGGEKIQVFDIQYLLFILKKEVMNVADLNDEKINKFATDAFFKKDFFEFTAGIACQYHEDNDRTKYCTQSMVTRWAYTFTDFMCGDLAITVQPGKHIPAQTKPNYLIISSYASSLDHESSFDSFYSLPGSGVKKESQPEACSLSSSRLSVASSSYKPIDHTSFAANLNEVSEFPSLGMR	no binding
Mael MUT (ReLo) (protein, UniProt Q9VNS0 1-459) MAPKKHSGFMMFVNEWRNRNAEGRRMTLAQAVSHCGTIWEKMNTQQRGPYNSGGKDANVAQRAKRESSNGHGQVDKAQREATESLMDMKRTIERLVLNAKMSHDLENAKFVFVAFNYFTKALTTDVYVPAEFAACEYSLKEGIRSIYSTMIDPGQIIFGQGSDALLHSSTTHDLPLPPNALGEKNMTKLYRNIVDYLSKCQGKGKTLVVFTPAENITMVKSCFRYLECDDDFRDGGEKIQVFDIQYLLFILKKEVMNVADLNDEKINKFATDAFFKKDFFEFTAGIACQYHEDNDRTKYCTQSMVTRWAYTFTDFMCGDLAITVQPGKHIPAQTKPNYLIISSYASSLDHESSFDSFYSLPGSGVKKESQPEACSLSSSRLSVASSSYKPIDHTSFAANLNEVSEFPSLGMRNSSKHHGIAASAQREWNARNLPTHSRLIRKESDNDESENGADGKLKK	no binding
KrimpΔ462-552 (protein, UniProt A1ZAC4) MNLEDISMIMKLFDSNMHKLQGNLRSYQTEMHQIHKELTEKLSHADLLYRSLIPLHDHLVASLSEVNAHVMKLNVQLHINRQSVRLGDYEYYEKSIDNPYSSIRSGLQAIEKPGCAEAICQSSKPAFVECLPSSTSEEVPVVAVQEASSTNQLDAISVVNENLSEERDATPQPLAVSKNMEETMPSNPFHEQLEGSLEEIPVGSKIVVETEKANNPVRSEASAPATSDNQSLLAAKQGTQTIGTGICNKISKSTINMPNNWQLENPTEVTAASIEKVNKLPKSPRNRFLLPPKGGTETTRRDIYNQILKDMAAFPENTIVTAVLASVDVTDNCAYVAKWDESSDRIKKVLQRQLPLQELDQLPDYGDIFAVLDSINNIITRITINSSSAGGGYDAYLIDFGEHIHFDGNETIFKLPDDIKRLPAQAIRCDLINCDIANMHCFVNTYIKIRVHENNNSTLVARALPETIFDTTVHFEIGSIVGILITFINGPTEVYGQFLDGSPPLVWDKKDVPENKRTFKSKPRLLDIVLALYSDGCFYRAQIIDEFPSEYMIFYVDYGNTEFVPLSCLAPCENVDSFKPHRVFSFHIEGIVRSKNLTHQKTIECIEYLKSKLLNTEMNVHLVQRLPDGFLIRFLDDWKYIPEQLLQRNYAQVSQ	no binding
KrimpΔ1-83 (domain or fragment, UniProt A1ZAC4 84-746) VRLGDYEYYEKSIDNPYSSIRSGLQAIEKPGCAEAICQSSKPAFVECLPSSTSEEVPVVAVQEASSTNQLDAISVVNENLSEERDATPQPLAVSKNMEETMPSNPFHEQLEGSLEEIPVGSKIVVETEKANNPVRSEASAPATSDNQSLLAAKQGTQTIGTGICNKISKSTINMPNNWQLENPTEVTAASIEKVNKLPKSPRNRFLLPPKGGTETTRRDIYNQILKDMAAFPENTIVTAVLASVDVTDNCAYVAKWDESSDRIKKVLQRQLPLQELDQLPDYGDIFAVLDSINNIITRITINSSSAGGGYDAYLIDFGEHIHFDGNETIFKLPDDIKRLPAQAIRCDLINCDIANMHCFVNTYIKIRVHENNNSTLVAEPVIDRLSRPTKTNTTKYPAGITEDDMAMLNEIDESTSDPLKAVLGFRPKDEQRICRHYDPKLNGCFKGNNCRFAHEPFAPNGATKDVELARALPETIFDTTVHFEIGSIVGILITFINGPTEVYGQFLDGSPPLVWDKKDVPENKRTFKSKPRLLDIVLALYSDGCFYRAQIIDEFPSEYMIFYVDYGNTEFVPLSCLAPCENVDSFKPHRVFSFHIEGIVRSKNLTHQKTIECIEYLKSKLLNTEMNVHLVQRLPDGFLIRFLDDWKYIPEQLLQRNYAQVSQ	no binding
KrimpΔ551-746 (domain or fragment, UniProt A1ZAC4 1-550) MNLEDISMIMKLFDSNMHKLQGNLRSYQTEMHQIHKELTEKLSHADLLYRSLIPLHDHLVASLSEVNAHVMKLNVQLHINRQSVRLGDYEYYEKSIDNPYSSIRSGLQAIEKPGCAEAICQSSKPAFVECLPSSTSEEVPVVAVQEASSTNQLDAISVVNENLSEERDATPQPLAVSKNMEETMPSNPFHEQLEGSLEEIPVGSKIVVETEKANNPVRSEASAPATSDNQSLLAAKQGTQTIGTGICNKISKSTINMPNNWQLENPTEVTAASIEKVNKLPKSPRNRFLLPPKGGTETTRRDIYNQILKDMAAFPENTIVTAVLASVDVTDNCAYVAKWDESSDRIKKVLQRQLPLQELDQLPDYGDIFAVLDSINNIITRITINSSSAGGGYDAYLIDFGEHIHFDGNETIFKLPDDIKRLPAQAIRCDLINCDIANMHCFVNTYIKIRVHENNNSTLVAEPVIDRLSRPTKTNTTKYPAGITEDDMAMLNEIDESTSDPLKAVLGFRPKDEQRICRHYDPKLNGCFKGNNCRFAHEPFAPNGATKDVE	no binding

These molecules were tested against T1, Spindle E (Drosophila) (assay: ReLo).

Molecule	binding
Tejas V347E (Drosophila)	binds
Qin (Drosophila)	binds
Tejas A332E/V333E (Drosophila)	no binding
Tapas (Drosophila)	no binding
Tejas D320K (Drosophila)	no binding

Results are given in words; binding and its absence hold for the method and conditions named. Binding calls can cover weak binding; strength is not graded here.
